From the supplement of paper PMC7024190
This is one part of the list. Repeats in this data set agree poorly, so a single value says little.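 Human embryonic kidney cells were transiently transfected with a plasmid bearing a Renilla luciferase gene under the HSV-TK promoter. This first-round screen tests roughly ten thousand compounds for ones that increase reporter output.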

These molecules were tested on HEK 293FT (assay: log relative Renilla luciferase luminescence (reporter expression vs reference, reference not stated) (log (base not stated)); higher = higher recombinant reporter expression). Details: 10 µM; time after transfection 48 h.
Description: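 HEK 293FT cells transiently transfected with pRL-TK (Renilla luciferase) were treated with compounds at 10 uM and luminescence was read about 42 h later. Values are log relative Renilla luminescence (log base and reference not stated). Single-pass screen; 2080 natural products library.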
`C[C@H]1[C@H](C)CC[C@]2(C(=O)O)CC[C@]3(C)C(=CC[C@@H]4[C@@]5(C)C[C@@H](O)[C@H](O)C(C)(C)[C@@H]5CC[C@]43C)[C@H]12` [Corosolic acid] was tested, and the log was -0.179. Molecule `OCc1ccccc1O` [Salicyl alcohol] has a log of -0.56. For `COc1cc2c(c(O)c1OC)-c1c(cc3c(c1OC)OCO3)CC(C)C(C)C2` (stereo not drawn) [R(+)-Gomisin M1], the log was -0.331. Molecule `O=c1c(O)c(-c2ccc(O)cc2)oc2cc(O)cc(O)c12` [Kaempferol] has a log of 0.0366. With `CC[C@H](CC[C@@H](C)[C@H]1CC[C@H]2[C@@H]3CC(=O)[C@H]4CC(=O)CC[C@]4(C)[C@H]3CC[C@]12C)C(C)C` [Stigmastane-3,6-dione] the log was 0.0307. `O=c1cc(-c2ccc(O)cc2)oc2cc(O)cc(O)c12` [Apigenin] gave a log of 0.11. `COC1=CC(C)C2CC3OC(O)CC4C(C)C5OCOC5C(C2(C)C1=O)C34C` (centres undefined) [Picrasinol B] was tested, and the log was 0.0997. `C=C1C(=O)O[C@@H]2C[C@H](C)[C@@]3(O)C[C@H](O)[C@@](C)(C[C@@H](OC(=O)C(C)C)[C@@H]12)O3` [Tagitinin A] showed a log of 0.0705. `C=C1C(=O)O[C@@H]2/C=C(\C)CC/C=C(\C)CC[C@@H]12` [Costunolide] was tested, and the log was 0.041. Molecule `O=C(/C=C/c1ccc(O)c(O)c1)O[C@H](Cc1ccc(O)c(O)c1)C(=O)O` [Rosmarinic acid] has a log of -0.16. With `C=C1C(=O)O[C@H]2C[C@@H]3[C@@]4(CC[C@]5(C)[C@H]([C@@H](C)CC/C=C(\C)C=O)CC[C@@]35C)C[C@]4(CCC(=O)OC)[C@@H]12` [Coronalolide methyl ester] the log was 0.0106.

Tested on: HEK 293FT
Assay: as above
Details: 10 µM; time after transfection 48 h
Remark: another data set of the same source
For `C[C@H]1[C@H](OC(=O)CCC(=O)O)O[C@@H]2O[C@@]3(C)CC[C@H]4[C@H](C)CC[C@@H]1[C@@]24OO3`, the log was -1.54. Molecule `CC(C)(C)NC(=O)[C@@H]1C[C@@H]2CCCC[C@@H]2CN1C[C@@H](O)[C@H](Cc1ccccc1)NC(=O)[C@H](CC(N)=O)NC(=O)c1ccc2ccccc2n1` has a log of -0.35. With `CN[C@H]1CC[C@@H](c2ccc(Cl)c(Cl)c2)c2ccccc21` [Sertraline] the log was -0.139. `C[C@H]1COc2c(N3CCN(C)CC3)c(F)cc3c(=O)c(C(=O)O)cn1c23` was tested, and the log was 0.0139. Molecule `CCCCC(=O)N(Cc1ccc(-c2ccccc2-c2nnn[nH]2)cc1)[C@H](C(=O)O)C(C)C` has a log of -0.0473. For `CNNCc1ccc(C(=O)NC(C)C)cc1`, the log was -0.042. Work on `COc1cc2nc(N3CCN(C(=O)C4CCCO4)CC3)nc(N)c2cc1OC` (centres undefined) [Terazosin] yielded a log of 0.192. `COc1cc2nc(N3CCN(C(=O)c4ccco4)CC3)nc(N)c2cc1OC` [Prazosin] gave a log of 0.192. `NC[C@H]1CC[C@H](C(=O)Oc2ccc(CCC(=O)O)cc2)CC1` was tested, and the log was 0.152. Molecule `CCCCc1oc2ccccc2c1C(=O)c1cc(I)c(OCCN(CC)CC)c(I)c1` has a log of 0.0675. `CN(C/C=C/C#CC(C)(C)C)Cc1cccc2ccccc12` gave a log of -0.0986. For `CN(C)CCc1c[nH]c2ccc(Cn3cncn3)cc12`, the log was -0.631. `CO[C@H]1O[C@@H]2O[C@@]3(C)CC[C@H]4[C@H](C)CC[C@@H]([C@H]1C)[C@@]24OO3` was tested, and the log was -0.069. `CC1CNc2c(cccc2S(=O)(=O)N[C@@H](CCCNC(=N)N)C(=O)N2CC[C@@H](C)C[C@@H]2C(=O)O)C1` (some centres undefined) showed a log of -0.0986. Work on `COCCCC/C(=N\OCCN)c1ccc(C(F)(F)F)cc1` [Fluvoxamine] yielded a log of -0.00376. `COc1ccc(CN2CCN(C(c3ccc(F)cc3)c3ccc(F)cc3)CC2)c(OC)c1OC` was tested, and the log was -0.212. Molecule `Clc1ccccc1CN1CCc2sccc2C1` has a log of -0.196. Molecule `CN(C)CCC[C@@]1(c2ccc(F)cc2)OCc2cc(C#N)ccc21` has a log of -0.156. In the case of `COCc1c(C(C)C)nc(C(C)C)c(/C=C/[C@@H](O)C[C@@H](O)CC(=O)O)c1-c1ccc(F)cc1`, the log is reported as -0.165. `CN(C)CCOC(C)(c1ccccc1)c1ccccn1` (centres undefined) showed a log of -0.125. `C[C@]12C=CC(=O)C=C1CC[C@@H]1[C@@H]2[C@@H](O)C[C@@]2(C)[C@H]1CC[C@]2(O)C(=O)COC(=O)CCC(=O)O` was tested, and the log was -0.06. In the case of `CN1CCN(CCCN2c3ccccc3Sc3ccc(C(F)(F)F)cc32)CC1`, the log is reported as 0.106. Molecule `C[C@]12CCC(=O)C=C1CC[C@@H]1[C@@H]2C(=O)C[C@@]2(C)[C@H]1CC[C@]2(O)C(=O)CO` has a log of -0.174. `Cc1cccc(CCN2CCC(C(=O)c3ccc(NS(C)(=O)=O)cc3)CC2)n1` was tested, and the log was 0.0664. For `O=C(NCCO[N+](=O)[O-])c1cccnc1`, the log was -0.381. `COc1cc(C)nc(-n2nc(C)cc2OC)n1` gave a log of -0.0122. Molecule `COc1ccc(CC2c3cc(OC)c(OC)cc3CC[N+]2(C)CCC(=O)OCCCCCOC(=O)CC[N+]2(C)CCc3cc(OC)c(OC)cc3C2Cc2ccc(OC)c(OC)c2)cc1OC` (centres undefined) has a log of 0.111. In the case of `CC1CCN(CCCC(=O)c2ccc(F)cc2)CC1` [Metylperon], the log is reported as 0.0941. Molecule `CC(c1cc2ccccc2s1)N(O)C(N)=O` (centres undefined) has a log of -0.0355.

Tested on: HEK 293FT
Assay: as above
Details: 10 µM; time after transfection 48 h
Remark: another data set of the same source
`O=c1c(O)c(-c2ccc(O)cc2)oc2cc(O)cc(O)c12` [Kaempferol] was tested, and the log was -0.0231. Molecule `O=c1cc(-c2ccc(O)cc2)oc2cc(O)cc(O)c12` [Apigenin] has a log of -0.0288. `C=C1C(=O)O[C@@H]2/C=C(\C)CC/C=C(\C)CC[C@@H]12` [Costunolide] showed a log of -1.12. In the case of `O=C(/C=C/c1ccc(O)c(O)c1)O[C@H](Cc1ccc(O)c(O)c1)C(=O)O` [Rosmarinic acid], the log is reported as 0.0467.
